These are yes or no findings as the source states them, for the method shown. Some binding calls cover weakened binding; strength is not graded here.
Biological target: GPC3(AA)-hFc, GPC3-human Fc fusion without the HS chains (human) (UniProt P51654)
Experiment: ELISA, epitope mapping on recombinant GPC3 proteins (FIG. 5)

B1: HN3 single-domain VH displayed on phage (clone HN3) (VHH)
VHH: QVQLVQSGGGLVQPGGSLRLSCAASYFDFDSYEMSWVRQAPGKGLEWIGSIYHSGSTYYNPSLKSRVTISRDNSKNTLYLQMNTLRAEDTATYYCARVNMDRFDYWGQGTLVTVSS
B1 was tested, and the binding was “binds”.

Source: patent US20150368340A1 (US Dept. of Health and Human Services, published 2015)
